Reference: patent US6500669
For some of these results: No signal at the amounts used counts as a negative. For some of these results: Protein sequences can lack the tags named with them.

The chains behind the UniProt entries cited, without tags or fusion partners. Where a name states a change or a piece, a line headed by the entry shows the natural chain unless it says otherwise.
UniProt P22629: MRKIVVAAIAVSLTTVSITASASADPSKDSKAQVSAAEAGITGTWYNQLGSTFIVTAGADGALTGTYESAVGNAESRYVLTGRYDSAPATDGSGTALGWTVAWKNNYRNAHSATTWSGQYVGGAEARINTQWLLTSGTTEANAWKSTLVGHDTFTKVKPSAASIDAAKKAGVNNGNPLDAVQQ

How the values were obtained:
[1] = molecular target: T1, hUBF (upstream binding factor, RNA polymerase I transcription factor) (Homo sapiens) (UniProt P17480); assay: footprint; details: no DNase I protection of unmodified 100-mer; purified native protein; protein details: homogeneous HeLa hUBF; label: 5' 32P; only the site is given
T1 sequence (looked up, limits assumed): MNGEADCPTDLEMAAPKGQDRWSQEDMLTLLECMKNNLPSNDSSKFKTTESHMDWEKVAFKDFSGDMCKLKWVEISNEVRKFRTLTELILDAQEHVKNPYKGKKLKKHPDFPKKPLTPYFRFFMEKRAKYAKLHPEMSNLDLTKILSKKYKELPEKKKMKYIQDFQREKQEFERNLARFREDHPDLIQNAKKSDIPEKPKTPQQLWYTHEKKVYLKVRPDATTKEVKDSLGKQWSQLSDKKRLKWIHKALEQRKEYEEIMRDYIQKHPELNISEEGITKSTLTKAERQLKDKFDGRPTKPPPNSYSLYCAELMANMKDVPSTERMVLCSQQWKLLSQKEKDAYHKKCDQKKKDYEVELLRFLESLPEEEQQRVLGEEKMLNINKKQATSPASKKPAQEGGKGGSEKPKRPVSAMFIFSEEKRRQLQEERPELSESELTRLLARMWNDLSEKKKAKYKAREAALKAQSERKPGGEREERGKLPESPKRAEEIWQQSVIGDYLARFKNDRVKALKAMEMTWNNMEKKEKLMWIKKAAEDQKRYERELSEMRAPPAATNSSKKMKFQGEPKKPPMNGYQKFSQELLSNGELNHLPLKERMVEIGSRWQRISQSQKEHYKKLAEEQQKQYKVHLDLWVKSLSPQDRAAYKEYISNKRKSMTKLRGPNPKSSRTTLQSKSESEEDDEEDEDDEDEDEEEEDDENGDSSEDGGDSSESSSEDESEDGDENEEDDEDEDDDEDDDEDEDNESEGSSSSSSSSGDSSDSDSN

uracil glycosylase = molecular target: T2, uracil glycosylase (UniProt P12295); assay: enzyme reaction in vitro; details: TMP-biotin (psoralen-biotin) monoadduct at T7 of the central TA; deoxyuridine at position 11; uracil removed; inhibited by about 50 nM lesion-bound streptavidin and restored by free biotin; 5 mM MgCl2, 50 mM KCl, 37 C; protein details: Boehringer-Mannheim; label: 5' …
T2 sequence (looked up, limits assumed): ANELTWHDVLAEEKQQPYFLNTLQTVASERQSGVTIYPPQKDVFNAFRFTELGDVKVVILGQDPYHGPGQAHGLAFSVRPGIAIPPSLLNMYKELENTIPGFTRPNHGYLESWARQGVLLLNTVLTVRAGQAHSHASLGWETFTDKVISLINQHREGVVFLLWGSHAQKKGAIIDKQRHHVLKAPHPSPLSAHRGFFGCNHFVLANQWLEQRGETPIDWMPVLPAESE

streptavidin = streptavidin (UniProt P22629); assay: EMSA; details: little binding activity, data not shown, protein details: Pierce, variant of TMP-biotin monoadducted U-17

“CAGTCTCCTTCTGGTCTCTTCTCAGT (double strand) [Un-100 (unmodified 100 bp analog; printed part only)]”: no binding [1].
In the case of “CGGCCGTACGUGCGCCG / CGGCGCACGTACGGCCG [TMP-biotin monoadducted U-17]”, the “activity on this sequence” value (uracil glycosylase) is reported as “active”.
“CGGCCGTACGUGCGCCG / CGGCGCACGTACGGCCG [U-17 monoadducted with psoralen derivative lacking biotin]”: no binding (streptavidin; psoralen derivative monoadduct).
“CGGCCGTACGUGCGCCG / CGGCGCACGTACGGCCG [U-17 unmodified]”: no binding (streptavidin; label: 32P).
